Series [1] concerns the target T1, TFAM (UniProt Q00059).
T1 sequence (looked up, limits assumed): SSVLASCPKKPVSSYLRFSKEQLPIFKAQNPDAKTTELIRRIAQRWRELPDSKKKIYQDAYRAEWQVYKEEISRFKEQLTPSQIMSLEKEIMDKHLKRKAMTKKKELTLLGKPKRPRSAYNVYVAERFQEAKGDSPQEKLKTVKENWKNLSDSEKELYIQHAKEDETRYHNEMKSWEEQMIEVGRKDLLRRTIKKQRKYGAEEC
The experiment in a line: EMSA. The conditions noted are these: 500 mM NaCl, apparent Kd; EMSA: 10 mM HEPES pH 8.0, 500 mM NaCl, 2 mM DTT, 130 ug/ml BSA, 5% glycerol, 100 nM DNA, 30 min on ice then 10 min RT; recombinant protein; protein details: His-MBP N-terminal, removed by TEV; label: 5'-Cy3 on strand 1 (EMSA), 6-FAM (FP). For orientation: In EMSA bound probe runs differently from free probe, usually more slowly.

Series [2] deals with T1, TFAM. The experiment in a line: EcoRI cleavage protection. Conditions: 10 mM MgCl2, 50 mM NaCl, less protection than DNA2GG at low TFAM/DNA, mostly protected at high ratio; EcoRI protection: 10 mM Tris-HCl pH 7.9, 10 mM MgCl2, 50 mM NaCl, 100 ug/ml BSA, 100 nM DNA, 30 min on ice then EcoRI 15 min 37 C; recombinant protein; protein details: His-MBP N-terminal, removed by TEV.

For some assays here: Weaker means in comparison with the reference protein, sequence or condition of that experiment. Tags and fusion partners may be left off the protein sequences shown. For some assays here: For at least one entry, the source does not settle the construct or the ends of the probe.

From article PMC8754647, “A minimal motif for sequence recognition by mitochondrial transcription factor A (TFAM)” come the findings set out here.

On to “AAAAAGAATCATTTGGATATATAGGTAT (double strand) [DNAAA]”, for which the Kd with TFAM [1] stood at 0.162 µM. With “CTGAAGCCAGTTACCTTTGAAAAAAGAGTTGGTAGCTCTTGATCTAGGAATTCAATCACCGCTGGTAGCGGTGGTTTTTTTATTTGCAAGCAGCAGATTA (double strand) [DNA2AA]”, in the series with TFAM [2], the binding result is given as “binds more weakly”.
